Data reported in article PMC12068304.

Amino acid sequences for entries named in this document (tags omitted). Residues count along the entry.
UniProt P02649, residues 19-317: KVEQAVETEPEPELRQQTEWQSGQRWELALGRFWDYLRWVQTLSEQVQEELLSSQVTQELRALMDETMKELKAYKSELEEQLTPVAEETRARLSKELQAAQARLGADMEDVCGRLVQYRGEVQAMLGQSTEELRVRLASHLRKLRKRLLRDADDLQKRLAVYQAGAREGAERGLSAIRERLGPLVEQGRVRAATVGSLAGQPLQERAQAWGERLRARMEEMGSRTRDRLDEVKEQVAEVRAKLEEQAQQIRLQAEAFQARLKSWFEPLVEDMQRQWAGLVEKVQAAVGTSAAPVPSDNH
UniProt Q14258: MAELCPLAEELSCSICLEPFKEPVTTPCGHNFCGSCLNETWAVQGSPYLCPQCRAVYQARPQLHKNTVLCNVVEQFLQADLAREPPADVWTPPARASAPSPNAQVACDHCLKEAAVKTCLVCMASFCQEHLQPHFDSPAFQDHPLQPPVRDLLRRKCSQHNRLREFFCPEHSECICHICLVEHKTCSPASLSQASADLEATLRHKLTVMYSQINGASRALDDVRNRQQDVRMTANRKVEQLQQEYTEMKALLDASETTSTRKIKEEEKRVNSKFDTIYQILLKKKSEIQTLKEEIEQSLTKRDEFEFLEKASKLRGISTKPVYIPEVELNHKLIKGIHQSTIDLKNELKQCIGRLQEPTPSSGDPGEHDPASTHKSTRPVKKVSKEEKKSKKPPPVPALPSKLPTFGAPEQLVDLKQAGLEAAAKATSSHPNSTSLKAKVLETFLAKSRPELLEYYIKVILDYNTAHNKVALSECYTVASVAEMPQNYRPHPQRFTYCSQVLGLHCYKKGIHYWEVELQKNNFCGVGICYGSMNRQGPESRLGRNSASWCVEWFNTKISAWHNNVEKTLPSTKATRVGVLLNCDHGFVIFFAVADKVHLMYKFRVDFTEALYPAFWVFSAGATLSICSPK

Biological target: Flag-APOE (UniProt P02649)
Test: affinity purification with mass spectrometry; LNCaP cells transfected with Flag-APOE vector; immunoprecipitation with anti-Flag or anti-AR antibodies, LC-MS/MS

With “Tripartite motif 25 (from UniProt Q14258 1-630) (enzyme)” the binding was “binds”.

No constants are given. Whether binding was seen depends on the method and setting. In cells and extracts the contact can be indirect. Here binding means that the protein was enriched with, or labelled near, the bait; the list need not be complete.
